These are yes or no findings as the source states them, for the method shown. In cells and extracts the contact can be indirect. Some entries that bind do so weakly or less than the wild type. Tags and fused reporters may be left off the sequences shown.
Columns and labels:
[1] = biological target: T1, Spo0M:DsRed fusion protein (B. subtilis) (UniProt P71088); assay: co-IP; 1 mg total protein from lysate of the Spo0M:DsRed or induced GFP:ZapA/Spo0M:DsRed strain with anti-DsRed antibody 3 h at 4°C, then protein A beads 3 h at 4°C; Western blot with anti-FtsZ or anti-GFP; control with an unspecific antibody
T1 sequence: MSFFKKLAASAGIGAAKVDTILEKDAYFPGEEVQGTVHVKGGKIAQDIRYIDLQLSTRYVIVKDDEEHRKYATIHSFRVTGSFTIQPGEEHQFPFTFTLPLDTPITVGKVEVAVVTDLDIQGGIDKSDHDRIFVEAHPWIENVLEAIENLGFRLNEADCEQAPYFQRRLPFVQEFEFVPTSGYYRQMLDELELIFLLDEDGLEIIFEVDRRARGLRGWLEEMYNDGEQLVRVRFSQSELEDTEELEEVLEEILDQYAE

[2] = biological target: T2, FtsZ (B. subtilis (endogenous in B. subtilis strains)) (UniProt P17865); assay: co-IP; reverse order: 1 mg total protein from lysate of the Spo0M:DsRed strain with anti-FtsZ antibody 3 h at 4°C, then protein A beads 3 h at 4°C; Western blot with anti-DsRed; control with a non-specific antibody
T2 sequence: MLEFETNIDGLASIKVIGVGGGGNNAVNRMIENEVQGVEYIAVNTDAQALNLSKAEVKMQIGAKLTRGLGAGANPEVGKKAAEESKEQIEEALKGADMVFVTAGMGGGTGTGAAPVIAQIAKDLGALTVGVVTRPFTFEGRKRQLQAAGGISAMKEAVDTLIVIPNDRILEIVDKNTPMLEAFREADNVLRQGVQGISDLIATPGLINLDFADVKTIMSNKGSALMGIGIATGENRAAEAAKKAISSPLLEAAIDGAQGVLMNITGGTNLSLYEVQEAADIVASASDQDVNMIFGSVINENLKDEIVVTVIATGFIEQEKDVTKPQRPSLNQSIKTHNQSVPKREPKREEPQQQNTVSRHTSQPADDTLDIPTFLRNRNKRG

B1: FtsZ (protein, UniProt P17865 1-382)
chain: MLEFETNIDGLASIKVIGVGGGGNNAVNRMIENEVQGVEYIAVNTDAQALNLSKAEVKMQIGAKLTRGLGAGANPEVGKKAAEESKEQIEEALKGADMVFVTAGMGGGTGTGAAPVIAQIAKDLGALTVGVVTRPFTFEGRKRQLQAAGGISAMKEAVDTLIVIPNDRILEIVDKNTPMLEAFREADNVLRQGVQGISDLIATPGLINLDFADVKTIMSNKGSALMGIGIATGENRAAEAAKKAISSPLLEAAIDGAQGVLMNITGGTNLSLYEVQEAADIVASASDQDVNMIFGSVINENLKDEIVVTVIATGFIEQEKDVTKPQRPSLNQSIKTHNQSVPKREPKREEPQQQNTVSRHTSQPADDTLDIPTFLRNRNKRG
binding [1]: binds

B2: GFP:ZapA (protein, UniProt P94542 1-85)
chain: MSDGKKTKTTVDIYGQHFTIVGEESRAHMRYVAGIVDDKMREINEKNPYLDINKLAVLTAVNVVHDYVKLQEKCEKLERQLKEKD
binding [1]: binds

B3: Spo0M:DsRed fusion protein (protein, UniProt P71088 1-258)
chain: MSFFKKLAASAGIGAAKVDTILEKDAYFPGEEVQGTVHVKGGKIAQDIRYIDLQLSTRYVIVKDDEEHRKYATIHSFRVTGSFTIQPGEEHQFPFTFTLPLDTPITVGKVEVAVVTDLDIQGGIDKSDHDRIFVEAHPWIENVLEAIENLGFRLNEADCEQAPYFQRRLPFVQEFEFVPTSGYYRQMLDELELIFLLDEDGLEIIFEVDRRARGLRGWLEEMYNDGEQLVRVRFSQSELEDTEELEEVLEEILDQYAE
binding [2]: binds
